Among the data in publication PMC6416337 are binding values, retold here.

The assay has as its target GST-SOS2-JD (the junction domain) (Arabidopsis). As to the kind of experiment: pull-down; GST-tagged SOS2-JD on beads, with or without prior incubation with His-tagged PKS5 in kinase buffer with ATP (30 °C, 30 min; PKS5 washed away), then His-tagged 14-3-3λ in binding buffer (2 mM DTT, 10 mM MgCl2, 20 mM Tris-HCl pH 7.2) at 4 °C for 3 h; anti-14-3-3 immunoblot; both purified. A general note: Immunoblotting shows a protein as a band on a membrane.

Results are given in words; binding and its absence hold for the method and conditions named. Binding can be weak; no strength is given. Where a sequence is shown, tags or fusion partners need not be part of it.

B1: His-tagged 14-3-3λ (protein, UniProt P48349 1-248)
chain: MAATLGRDQYVYMAKLAEQAERYEEMVQFMEQLVTGATPAEELTVEERNLLSVAYKNVIGSLRAAWRIVSSIEQKEESRKNDEHVSLVKDYRSKVESELSSVCSGILKLLDSHLIPSAGASESKVFYLKMKGDYHRYMAEFKSGDERKTAAEDTMLAYKAAQDIAAADMAPTHPIRLGLALNFSVFYYEILNSSDKACNMAKQAFEEAIAELDTLGEESYKDSTLIMQLLRDNLTLWTSDMQEQMDEA
Take B1: the binding result is listed as “binds”.
